Results: publication doi:10.1101/2021.03.31.437839
Results are given in words; binding and its absence hold for the method and conditions named. Binding seen in cells or lysates may run through a third protein. Some results given as binding are weak or reduced against the parent protein; the word gives no strength. Blank lines part the entries; values can stand above or below the substance they belong to.

Chains of the proteins cited; added tags and fusions are not shown.
UniProt Q92841: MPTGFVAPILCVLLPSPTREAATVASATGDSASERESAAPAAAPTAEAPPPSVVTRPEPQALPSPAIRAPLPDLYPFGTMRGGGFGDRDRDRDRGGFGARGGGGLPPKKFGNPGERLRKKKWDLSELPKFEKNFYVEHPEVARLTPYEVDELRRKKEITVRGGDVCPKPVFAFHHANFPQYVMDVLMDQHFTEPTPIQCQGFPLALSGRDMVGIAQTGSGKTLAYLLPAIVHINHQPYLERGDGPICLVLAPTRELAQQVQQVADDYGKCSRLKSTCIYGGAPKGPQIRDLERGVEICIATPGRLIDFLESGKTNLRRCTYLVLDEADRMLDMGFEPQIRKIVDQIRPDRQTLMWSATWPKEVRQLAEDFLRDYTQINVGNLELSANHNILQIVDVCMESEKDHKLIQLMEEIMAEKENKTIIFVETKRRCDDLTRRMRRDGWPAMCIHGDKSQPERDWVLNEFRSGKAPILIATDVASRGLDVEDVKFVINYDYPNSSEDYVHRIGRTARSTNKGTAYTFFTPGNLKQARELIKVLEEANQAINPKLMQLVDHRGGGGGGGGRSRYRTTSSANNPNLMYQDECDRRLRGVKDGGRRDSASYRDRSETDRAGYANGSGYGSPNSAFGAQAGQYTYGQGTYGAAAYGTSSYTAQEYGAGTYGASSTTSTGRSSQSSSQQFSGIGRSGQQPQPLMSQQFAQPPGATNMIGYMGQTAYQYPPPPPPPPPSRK
UniProt P84022: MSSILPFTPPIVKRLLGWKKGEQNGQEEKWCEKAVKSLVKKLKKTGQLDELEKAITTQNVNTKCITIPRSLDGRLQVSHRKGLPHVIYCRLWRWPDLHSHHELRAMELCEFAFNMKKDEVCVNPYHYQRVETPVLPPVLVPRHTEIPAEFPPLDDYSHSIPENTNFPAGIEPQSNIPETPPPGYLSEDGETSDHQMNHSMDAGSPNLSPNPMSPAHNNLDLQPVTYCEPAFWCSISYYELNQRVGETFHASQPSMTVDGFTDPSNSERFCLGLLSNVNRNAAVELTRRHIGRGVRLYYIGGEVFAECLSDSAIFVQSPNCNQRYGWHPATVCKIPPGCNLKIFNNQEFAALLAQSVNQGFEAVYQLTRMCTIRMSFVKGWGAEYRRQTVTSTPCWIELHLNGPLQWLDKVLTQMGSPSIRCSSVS
UniProt Q9GZN2: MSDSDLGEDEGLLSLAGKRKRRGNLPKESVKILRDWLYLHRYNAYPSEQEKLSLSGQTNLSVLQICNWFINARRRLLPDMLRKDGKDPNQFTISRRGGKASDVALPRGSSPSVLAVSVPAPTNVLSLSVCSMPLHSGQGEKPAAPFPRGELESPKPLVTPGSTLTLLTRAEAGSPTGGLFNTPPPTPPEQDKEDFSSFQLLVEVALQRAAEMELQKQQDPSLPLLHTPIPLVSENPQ

Experiments:
Experiment in all cases: co-IP
[1] = biological target: HA-DDX17 (human) (UniProt Q92841)
[2] = biological target: HA-SMAD3 (human) (UniProt P84022)
[3] = biological target: FLAG-SMAD3 (SMAD Family Member 3) (human) (UniProt P84022)

- binding [1]: binds
Substance: FLAG-SMAD3 (SMAD Family Member 3) (from UniProt P84022 1-425)

- binding [2]: binds
Substance: FLAG-TGIF2 (TGFB-induced factor homeobox 2) (from UniProt Q9GZN2 1-237)

- binding [3]: binds
Substance: HA-TGIF2 (from UniProt Q9GZN2 1-237)
